# Measurements from the supplement of paper PMC4635364.
# Structures can show the parent of a compound that is named as a salt. The list shows a part of the results. Single values are uncertain here, since repeats match poorly.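 ReNCell VM, a human fetal ventral-midbrain neural progenitor line, was differentiated without mitogens. Blinded raters scored images stained for doublecortin (early neurons) or tyrosine hydroxylase (dopaminergic neurons) against untreated wells (0 = no change). Scores were averaged across repeats and both raters, and compounds averaging 2 or more were selected as hits for retesting.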
# Key:
# ReNCell VM [1] = assay: neuronal differentiation score (DCX+ cell fraction vs untreated, manual image score) (score (-3 to 3)); higher = more neuronal differentiation; conditions: 2 uM, 2 weeks
# ReNCell VM [2] = assay: dopaminergic neuron differentiation score (TH+ cell fraction vs untreated, manual image score) (score (0 to 3)); higher = more TH+ dopaminergic neuron differentiation; conditions: 2 uM, 4 weeks, BDNF 10 ng/ml + GDNF 10 ng/ml
smiles,measurement,setting,value
Nc1nc(=O)c2c([nH]1)NC[C@@H](CNc1ccc(C(=O)N[C@@H](CCC(=O)O)C(=O)O)cc1)N2C=O [Folinic acid calcium salt],neuronal differentiation score,ReNCell VM [1]; library: Prestwick,inactive: 0
same,dopaminergic neuron differentiation score,ReNCell VM [2]; library: Prestwick,inactive: 0
C[N+](C)(C)CC[N+]1(C)Cc2c(Cl)c(Cl)c(Cl)c(Cl)c2C1 [Chlorisondamine diiodide],neuronal differentiation score,ReNCell VM [1]; library: Tocriscreen,inactive: 0
same,dopaminergic neuron differentiation score,ReNCell VM [2]; library: Tocriscreen,inactive: 1
COc1ccc2c(c1)OCC(Cc1ccc(O)c(OC)c1)C2=O (configuration not stated),neuronal differentiation score,ReNCell VM [1]; library: Spectrum,inactive: 0
same,dopaminergic neuron differentiation score,ReNCell VM [2]; library: Spectrum,inactive: 0
"Nc1ncnc2c1ncn2[C@@H]1O[C@@H]2COP(=O)(O)O[C@H]2[C@H]1O [Adenosine 3',5'-cyclic monophosphate]",neuronal differentiation score,ReNCell VM [1]; library: LOPAC,inactive: 0
same,dopaminergic neuron differentiation score,ReNCell VM [2]; library: LOPAC,inactive: 0
Cc1cccc(Nc2ccccc2C(=O)O)c1C,neuronal differentiation score,ReNCell VM [1]; library: Spectrum,inactive: 0
same,dopaminergic neuron differentiation score,ReNCell VM [2]; library: Spectrum,inactive: 0
COc1ccc(-c2oc3cc(OC)ccc3c2C(=O)c2ccc(C#N)cc2)cc1,neuronal differentiation score,ReNCell VM [1]; library: Tocriscreen,inactive: 0
same,dopaminergic neuron differentiation score,ReNCell VM [2]; library: Tocriscreen,inactive: 0
CCN1C(=O)NC(c2ccccc2)C1=O (configuration not stated),neuronal differentiation score,ReNCell VM [1]; library: Spectrum,inactive: 0
same,dopaminergic neuron differentiation score,ReNCell VM [2]; library: Spectrum,inactive: 0
Cc1ccc(C(=O)Nc2ccc(S(=O)(=O)O)c3cc(S(=O)(=O)O)cc(S(=O)(=O)O)c23)cc1NC(=O)c1cccc(NC(=O)Nc2cccc(C(=O)Nc3cc(C(=O)Nc4ccc(S(=O)(=O)O)c5cc(S(=O)(=O)O)cc(S(=O)(=O)O)c45)ccc3C)c2)c1 [Suramin sodium salt],neuronal differentiation score,ReNCell VM [1]; library: LOPAC,inactive: 0
same,dopaminergic neuron differentiation score,ReNCell VM [2]; library: LOPAC,inactive: 0
COc1ccc([C@@H]2CC(=O)c3c(O)cc(O[C@@H]4O[C@H](CO[C@@H]5O[C@@H](C)[C@H](O)[C@@H](O)[C@H]5O)[C@@H](O)[C@H](O)[C@H]4O)cc3O2)cc1O,neuronal differentiation score,ReNCell VM [1]; library: Spectrum,inactive: 0
same,dopaminergic neuron differentiation score,ReNCell VM [2]; library: Spectrum,inactive: 0
COc1cc(O)c(C(=O)c2ccccc2)cc1S(=O)(=O)O,neuronal differentiation score,ReNCell VM [1]; library: Spectrum,inactive: 0
same,dopaminergic neuron differentiation score,ReNCell VM [2]; library: Spectrum,inactive: 0
NC(=O)c1ccccc1O,neuronal differentiation score,ReNCell VM [1]; library: Spectrum,inactive: 0
same,dopaminergic neuron differentiation score,ReNCell VM [2]; library: Spectrum,inactive: 0
CCCc1cc(C(N)=S)ccn1 [Prothionamide],neuronal differentiation score,ReNCell VM [1]; library: Prestwick,inactive: 0
same,dopaminergic neuron differentiation score,ReNCell VM [2]; library: Prestwick,inactive: 0
N=C(N)NC(=N)Nc1ccccc1 [1-Phenylbiguanide hydrochloride],neuronal differentiation score,ReNCell VM [1]; library: Tocriscreen,inactive: 0
same,dopaminergic neuron differentiation score,ReNCell VM [2]; library: Tocriscreen,inactive: 0
CN(CCOc1ccc(-c2ccc3c(c2)OCO3)cc1C(C)(C)C)CC(=O)O,neuronal differentiation score,ReNCell VM [1]; library: Tocriscreen,inactive: 0
same,dopaminergic neuron differentiation score,ReNCell VM [2]; library: Tocriscreen,inactive: 0
Cc1ccc(S(=O)(=O)NC(=O)NN2CC3CCCC3C2)cc1 (configuration not stated) [Gliclazide],neuronal differentiation score,ReNCell VM [1]; library: Prestwick,inactive: 0
same,dopaminergic neuron differentiation score,ReNCell VM [2]; library: Prestwick,inactive: 0
Clc1ccc(C(c2ccccc2Cl)C(Cl)Cl)cc1 (configuration not stated),neuronal differentiation score,ReNCell VM [1]; library: Spectrum,inactive: 0
same,dopaminergic neuron differentiation score,ReNCell VM [2]; library: Spectrum,inactive: 0
O=C(O)c1ccccc1Nc1cccc(OCc2ccc3ccccc3n2)c1 [SR 2640 hydrochloride],neuronal differentiation score,ReNCell VM [1]; library: Tocriscreen,inactive: 0
same,dopaminergic neuron differentiation score,ReNCell VM [2]; library: Tocriscreen,inactive: 0
COc1cc2c(cc1O)CC[C@@H]1[C@@H]2CC[C@]2(C)[C@@H](O)CC[C@@H]12 [2-methoxyestradiol],neuronal differentiation score,ReNCell VM [1]; library: LOPAC,inactive: 0
same,dopaminergic neuron differentiation score,ReNCell VM [2]; library: LOPAC,inactive: 1
CCS(=O)(=O)CCn1c([N+](=O)[O-])cnc1C,neuronal differentiation score,ReNCell VM [1]; library: Spectrum,inactive: 0
same,dopaminergic neuron differentiation score,ReNCell VM [2]; library: Spectrum,inactive: 0
C[C@]12CCC(=O)C=C1CC[C@@H]1[C@@H]2[C@@H](O)C[C@@]2(C)[C@H]1CC[C@]2(O)C(=O)COC(=O)CCC(=O)O,neuronal differentiation score,ReNCell VM [1]; library: Spectrum,inactive: 0
same,dopaminergic neuron differentiation score,ReNCell VM [2]; library: Spectrum,inactive: 0
CCOC(=O)c1c(C)[nH]c2ccc3c(c12)CN1CCc2cc(OC)ccc2C1O3 (configuration not stated),neuronal differentiation score,ReNCell VM [1]; library: Tocriscreen,inactive: 0
same,dopaminergic neuron differentiation score,ReNCell VM [2]; library: Tocriscreen,inactive: 0
COc1ccc(CN(CCN(C)C)c2ccccn2)cc1,neuronal differentiation score,ReNCell VM [1]; library: Spectrum,inactive: 1
same,dopaminergic neuron differentiation score,ReNCell VM [2]; library: Spectrum,inactive: 0
Cc1ccc(-c2cc(C(F)(F)F)nn2-c2ccc(S(N)(=O)=O)cc2)cc1,neuronal differentiation score,ReNCell VM [1]; library: Spectrum,inactive: 0
same,dopaminergic neuron differentiation score,ReNCell VM [2]; library: Spectrum,inactive: 0
CN(C)CCCN1c2ccccc2Sc2ccc(Cl)cc21,neuronal differentiation score,ReNCell VM [1]; library: Spectrum,inactive: 0
same,dopaminergic neuron differentiation score,ReNCell VM [2]; library: Spectrum,inactive: 0
CCc1cc(Cl)c(OC)c(C(=O)NC[C@@H]2CCCN2CC)c1O [Eticlopride hydrochloride],neuronal differentiation score,ReNCell VM [1]; library: Tocriscreen,inactive: 0
same,dopaminergic neuron differentiation score,ReNCell VM [2]; library: Tocriscreen,inactive: 0
Oc1cc2c(cc1O)C1c3ccc(O)c(O)c3OCC1(O)C2 (configuration not stated) [haematoxylin],neuronal differentiation score,ReNCell VM [1]; library: Natural,inactive: 0
same,dopaminergic neuron differentiation score,ReNCell VM [2]; library: Natural,inactive: 0

# Another view of part of the listing above:
smiles	measurement	setting	value
Nc1ncnc2c1ncn2[C@@H]1O[C@@H]2COP(=O)(O)O[C@H]2[C@H]1O [Adenosine 3',5'-cyclic monophosphate]	neuronal differentiation score	ReNCell VM [1]; library: LOPAC	inactive: 0
CCN1C(=O)NC(c2ccccc2)C1=O (configuration not stated)	neuronal differentiation score	ReNCell VM [1]; library: Spectrum	inactive: 0
CN(CCOc1ccc(-c2ccc3c(c2)OCO3)cc1C(C)(C)C)CC(=O)O	neuronal differentiation score	ReNCell VM [1]; library: Tocriscreen	inactive: 0
